# Data from the supplement of paper PMC7411640.
# Structures can show the parent of a compound that is named as a salt. Some of the results follow. Repeats in this data set agree poorly, so a single value says little.
# Test system: MDA-MB-468
# Assay: phospho-S6 immunofluorescence (DAPI-normalised), per-plate z-score; higher = higher phospho-S6 signal (less pathway suppression)
# Settings: compound 1 µM; co-treatment: vehicle; 24 h
# Protocol: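 GPCR-targeted compound library (MedChemExpress HY-L006) tested on MDA-MB-468 PTEN-null TNBC cells in 384-well plates at 0.1, 1 or 10 uM, combined with vehicle, GDC0941 450 nM or lapatinib 1 uM, for 24 h. Phospho-S6 (S240/244) immunofluorescence normalised to DAPI and expressed as a per-plate z-score; values are the mean of biological triplicates.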
row,Compound,phospho-S6 immunofluorescence (z-score)
1,Cc1cncc(CN2CCC(=C3c4ccc(Cl)cc4CCc4cccnc43)CC2)c1 [Rupatadine (Fumarate)],-1.24
2,Cn1cc(C(=O)[C@@H]2CCc3[nH]cnc3C2)c2ccccc21 [Ramosetron (Hydrochloride)],-1.92
3,N#Cc1cc(NC(=O)C(=O)O)c(Cl)c(NC(=O)C(=O)O)c1 [Lodoxamide],1.38
4,OCCOCCN1CCN(C(c2ccccc2)c2ccc(Cl)cc2)CC1 (stereo not given) [Hydroxyzine (dihydrochloride)],0.41
5,COc1ccc2c(c1OC)C(=O)O[C@@H]2[C@H]1c2c(cc3c(c2OC)OCO3)CCN1C [Noscapine],0.17
6,CCc1nn(CCCN2CCN(c3cccc(Cl)c3)CC2)c(=O)n1CCOc1ccccc1 [Nefazodone (hydrochloride)],0.41
7,CN(C)CCCN1c2ccccc2Sc2ccccc21 [Promazine (hydrochloride)],0.59
8,CN(C)CCC(c1ccc(Cl)cc1)c1ccccn1 (stereo not given) [Chlorpheniramine (maleate)],-0.47
9,CCCCc1nc(C)c(CC(=S)N(C)C)c(=O)n1Cc1ccc(-c2ccccc2-c2nnn[nH]2)cc1 [Fimasartan],-0.62
10,C[N+]1(C)CCC(=C(c2ccccc2)c2ccccc2)CC1 [Diphenmanil (methylsulfate)],-0.02
11,OCCOCCN1CCN(C2=Nc3ccccc3Sc3ccccc32)CC1 [Quetiapine (fumarate)],-0.4
12,COc1cc2nc(N3CCN(C(=O)c4ccco4)CC3)nc(N)c2cc1OC [Prazosin (hydrochloride)],-0.65
13,N=C(N)NCCCCN [Agmatine (sulfate)],0.35
14,CN1CCN(C(=O)c2cc3cc(Cl)ccc3[nH]2)CC1,-0.3
15,CN1CCc2cc(Cl)c(O)cc2[C@@H](c2ccccc2)C1,0.11
16,COc1cc2nc(N3CCN(C(=O)C4CCCO4)CC3)nc(N)c2cc1OC (stereo not given) [Terazosin (hydrochloride dihydrate)],0.16
17,NCCc1c[nH]cn1 [Histamine],-0.23
18,CCN1CCCC1CNC(=O)c1cc(S(N)(=O)=O)ccc1OC (stereo not given) [Sulpiride],-0.85
19,COCCOc1ccc(N2CCN(CCn3ncc4c3nc(N)n3nc(-c5ccco5)nc43)CC2)cc1 [Preladenant],0.71
20,CCN(CC)CCNC(=O)c1cc(Cl)c(N)cc1OC [Metoclopramide (hydrochloride hydrate)],-0.45

# Reformatted: entries from further up
row | Compound | phospho-S6 immunofluorescence (z-score)
1 | Cc1cncc(CN2CCC(=C3c4ccc(Cl)cc4CCc4cccnc43)CC2)c1 [Rupatadine (Fumarate)] | -1.24
2 | Cn1cc(C(=O)[C@@H]2CCc3[nH]cnc3C2)c2ccccc21 [Ramosetron (Hydrochloride)] | -1.92
3 | N#Cc1cc(NC(=O)C(=O)O)c(Cl)c(NC(=O)C(=O)O)c1 [Lodoxamide] | 1.38
4 | OCCOCCN1CCN(C(c2ccccc2)c2ccc(Cl)cc2)CC1 (stereo not given) [Hydroxyzine (dihydrochloride)] | 0.41
5 | COc1ccc2c(c1OC)C(=O)O[C@@H]2[C@H]1c2c(cc3c(c2OC)OCO3)CCN1C [Noscapine] | 0.17
6 | CCc1nn(CCCN2CCN(c3cccc(Cl)c3)CC2)c(=O)n1CCOc1ccccc1 [Nefazodone (hydrochloride)] | 0.41
7 | CN(C)CCCN1c2ccccc2Sc2ccccc21 [Promazine (hydrochloride)] | 0.59
9 | CCCCc1nc(C)c(CC(=S)N(C)C)c(=O)n1Cc1ccc(-c2ccccc2-c2nnn[nH]2)cc1 [Fimasartan] | -0.62
11 | OCCOCCN1CCN(C2=Nc3ccccc3Sc3ccccc32)CC1 [Quetiapine (fumarate)] | -0.4
15 | CN1CCc2cc(Cl)c(O)cc2[C@@H](c2ccccc2)C1 | 0.11
16 | COc1cc2nc(N3CCN(C(=O)C4CCCO4)CC3)nc(N)c2cc1OC (stereo not given) [Terazosin (hydrochloride dihydrate)] | 0.16

# Continued:

row,Compound,phospho-S6 immunofluorescence (z-score)
1,Nc1ccc(/C=C/c2cccc(C(=O)O)n2)cc1,0.74
2,CC(C)C(=O)OCC(=O)[C@@]12O[C@H](C3CCCCC3)O[C@@H]1C[C@H]1[C@@H]3CCC4=CC(=O)C=C[C@]4(C)[C@H]3[C@@H](O)C[C@@]12C [Ciclesonide],-0.52
3,N#Cc1ccc2[nH]cc(CCCCN3CCN(c4ccc5oc(C(N)=O)cc5c4)CC3)c2c1 [Vilazodone],0.62
4,Cc1ccc(Sc2ccccc2N2CCNCC2)c(C)c1 [Vortioxetine],-0.53
5,CN(C)CCCN1c2ccccc2Sc2ccc(Cl)cc21 [Chlorpromazine (hydrochloride)],1.27
6,Clc1ccc(Cn2c(CN3CCCC3)nc3ccccc32)cc1 [Clemizole (hydrochloride)],-2.55
7,CCCc1nc(C(C)(C)O)c(C(=O)O)n1Cc1ccc(-c2ccccc2-c2nnn[nH]2)cc1 [Olmesartan],-0.34
8,CC(N)(C(=O)O)c1ccc(C(=O)O)cc1 (racemic),0.82
9,c1cc(CN2CCCNCCNCCCNCC2)ccc1CN1CCCNCCNCCCNCC1 [Plerixafor (octahydrochloride)],-0.97
10,CN1CCC[C@@H]1CCO[C@](C)(c1ccccc1)c1ccc(Cl)cc1 [Clemastine (fumarate)],0.82
11,Cc1nc2c([nH]1)-c1ccccc1N(C(=O)c1ccc(NC(=O)c3ccccc3-c3ccccc3)cc1)CC2 [Conivaptan (hydrochloride)],0.62
12,COc1nc(C)cnc1NS(=O)(=O)c1cccnc1-c1ccc(-c2nnco2)cc1 [Zibotentan],-1.99
13,O=C(Nc1ccccc1)C12CC1C(=NO)c1ccccc1O2 (stereo not given),0.08
14,O=C(CCCN1CCC(O)(c2ccc(Cl)cc2)CC1)c1ccc(F)cc1 [Haloperidol],-0.28
15,COc1ccc2cc(OCC3(C(=O)O)CN(C(=O)c4ccc(F)cc4)C3)ccc2c1,0.18
16,CC(C)C[C@H](NC(=O)CNC(=O)[C@H](Cc1ccc(O)cc1)NC(=O)[C@H](CO)NC(=O)[C@H](Cc1c[nH]c2ccccc12)NC(=O)[C@H](Cc1cnc[nH]1)NC(=O)[C@@H]1CCC(=O)N1)C(=O)N[C@@H](CCCNC(=N)N)C(=O)N1CCC[C@H]1C(=O)NCC(N)=O [Gonadorelin (acetate)],-1.55
17,CN1CCC(=C2c3ccccc3CC(=O)c3sccc32)CC1 [Ketotifen (fumarate)],0.58
18,CN1CCC(OC(c2ccccc2)c2ccccc2)CC1 [Diphenylpyraline (hydrochloride)],-0.65
19,Cn1c(=O)c2nc[nH]c2n(C)c1=O [Theophylline],0.18
20,CC(=O)OCC(=O)[C@@]1(O)[C@H](C)C[C@H]2[C@@H]3CCC4=CC(=O)C=C[C@]4(C)[C@@]3(F)[C@@H](O)C[C@@]21C [Dexamethasone (acetate)],1.25
